Like-named read-outs stand apart in the source and are kept apart here. At least one compound was matched to its structure with a doubt left.
How the values were obtained:
Format in all cases: cell-based, Pseudomonas aeruginosa
P. aeruginosa = settings: for persistence of P. aeruginosa in small airway cells under treatment: 50 μg/ml imipenem
Description: Mature small airway chips at air-liquid interface (ALI) were gently washed with PBS to remove excess mucus. Cells were inoculated with 2-3×10^6 colony forming units (CFUs) in Hank's balanced salt solution (HBSS) for 2 hours. At the end of the incubation, the inoculum was removed and the cells were washed 3× with phosphate buffer saline (PBS) to remove any nonadherent bacteria. PBS was removed and cells were incubated at ALI up to 24 hours (h) under flow in the bottom channel but not in the top channel.
After an exemplary on-chip infection protocol, including removing nonadherent bacteria, a test compound was immediately added to the top (apical) and bottom (basal) channels then cells are cultured under flow using media containing the anti-microbial compound, for 24 hours. Exemplary test compound amounts are at least 0.1 μg/ml, up to 50 μg/ml, up to 100 μg/ml, up to 500 μg/ml. In one embodiment, an exemplary test compound is a drug Imipenem.
More specifically, in one embodiment of an Airway on-chip, duplicate chips were infected with PA 5919 WT or PA 5890 Mutant as described herein. Then, Imipenem was added to apical and basolateral fluids (cell media) for treatment with Imipenem at 50, 100 and 500 μg/ml for 24 hours with at least one chip without Imipenem. At 24 h post treatment, wash cells 3× to remove the test drug, i.e. antibiotic Imipenem. Cells lysed with 1% Triton for 10 minutes on chip, then the lysate was collected from the chip's channels. Lysates were serially diluted for CFU quantification. N=2.
Assay readouts: Viability of extracellular bacteria (apical sampling). Viability of intracellular bacteria (cell lysis and sampling). Two-way ANOVA with Dunnett's post-test **<0.05, **<0.001 (compared to untreated).

[1] = system: P. aeruginosa MB5919 (WT); test: Anti-microbial treatment of P. aeruginosa infection on airway chip, WT strain; settings: imipenem 50, 100, 500 μg/ml, 24 hours
[2] = system: P. aeruginosa MB5890 (mutant); test: Anti-microbial treatment of P. aeruginosa infection on airway chip, efflux-pump mutant strain; settings: imipenem 50, 100, 500 μg/ml, 24 hours

## C[C@@H](O)[C@H]1C(=O)N2C(C(=O)O)=C(SCCN=CN)C[C@H]12 [Imipenem]
P. aeruginosa
  persistence of P. aeruginosa in small airway cells under treatment: persists in small airway cells over time
P. aeruginosa; listed as imipenem
  persistence of P. aeruginosa in small airway cells under treatment: can persist in small airway cells over time
P. aeruginosa; 24 h treatment
  viability of intracellular bacteria in airway cells: not intracellular bacteria
[1]
  bactericidal effect (CFU): significant bactericidal effect
[2]
  bactericidal effect (CFU): significant bactericidal effect
